From publication PMC6267337 come the findings set out here.

No constants are given. Whether binding was seen depends on the method and setting. Tags and fused reporters may be left off the sequences shown.

For the assay, the target named is recombinant human pancreatic lipase fused to Strep-tag II (recHPL–ST II) (human) (UniProt P16233). The assay can be described thus: SEC; gel-filtration FPLC of refolded recHPL on HiPrep 16/60 Sephacryl S-200 HR; 10 mM phosphate buffer pH 8.0, 150 mM NaCl, 400 mM L-Arg; 0.5 ml/min; 4°C; fractions also checked by non-reducing SDS-PAGE, western blot and lipolytic activity; both purified.

B1: recombinant human pancreatic lipase fused to Strep-tag II (recHPL–ST II) (enzyme, UniProt P16233 17-465)
chain: MKEVCYERLGCFSDDSPWSGITERPLHILPWSPKDVNTRFLLYTNENPNNFQEVAADSSSISGSNFKTNRKTRFIIHGFIDKGEENWLANVCKNLFKVESVNCICVDWKGGSRTGYTQASQNIRIVGAEVAYFVEFLQSAFGYSPSNVHVIGHSLGAHAAGEAGRRTNGTIGRITGLDPAEPCFQGTPELVRLDPSDAKFVDVIHTDGAPIVPNLGFGMSQVVGHLDFFPNGGVEMPGCKKNILSQIVDIDGIWEGTRDFAACNHLRSYKYYTDSIVNPDGFAGFPCASYNVFTANKCFPCPSGGCPQMGHYADRYPGKTNDVGQKFYLDTGDASNFARWRYKVSVTLSGKKVTGHILVSLFGNKGNSKQYEIFKGTLKPDSTHSNEFDSDVDVGDLQMVKFIWYNNVINPTLPRVGASKIIVETNVGKQFNFCSPETVREEVLLTLTPC
For the molecule B1, the binding result was “no binding”.
